Results are given in words; binding and its absence hold for the method and conditions named. Binding seen in cells or lysates may run through a third protein. These calls come from enrichment with a bait or labelling near it, and not all partners need be listed. For part of these data: Sequences can lack the tags named with a protein.
Key:
[1] = biological target: 3xFLAG-V5-GFP-dZfc3h1 (Drosophila melanogaster (endogenous in OSCs and ovaries)) (UniProt Q9W238); assay: affinity purification with mass spectrometry
[2] = biological target: 3xFLAG-V5-GFP-TEsup-1 (Drosophila melanogaster (endogenous in OSCs)) (UniProt Q9VBX4); assay: affinity purification with mass spectrometry
[3] = biological target: T1, 3xFLAG-V5-GFP-TEsup-2 (Drosophila melanogaster (endogenous in OSCs)) (UniProt Q7YZA2); assay: affinity purification with mass spectrometry
T1 sequence: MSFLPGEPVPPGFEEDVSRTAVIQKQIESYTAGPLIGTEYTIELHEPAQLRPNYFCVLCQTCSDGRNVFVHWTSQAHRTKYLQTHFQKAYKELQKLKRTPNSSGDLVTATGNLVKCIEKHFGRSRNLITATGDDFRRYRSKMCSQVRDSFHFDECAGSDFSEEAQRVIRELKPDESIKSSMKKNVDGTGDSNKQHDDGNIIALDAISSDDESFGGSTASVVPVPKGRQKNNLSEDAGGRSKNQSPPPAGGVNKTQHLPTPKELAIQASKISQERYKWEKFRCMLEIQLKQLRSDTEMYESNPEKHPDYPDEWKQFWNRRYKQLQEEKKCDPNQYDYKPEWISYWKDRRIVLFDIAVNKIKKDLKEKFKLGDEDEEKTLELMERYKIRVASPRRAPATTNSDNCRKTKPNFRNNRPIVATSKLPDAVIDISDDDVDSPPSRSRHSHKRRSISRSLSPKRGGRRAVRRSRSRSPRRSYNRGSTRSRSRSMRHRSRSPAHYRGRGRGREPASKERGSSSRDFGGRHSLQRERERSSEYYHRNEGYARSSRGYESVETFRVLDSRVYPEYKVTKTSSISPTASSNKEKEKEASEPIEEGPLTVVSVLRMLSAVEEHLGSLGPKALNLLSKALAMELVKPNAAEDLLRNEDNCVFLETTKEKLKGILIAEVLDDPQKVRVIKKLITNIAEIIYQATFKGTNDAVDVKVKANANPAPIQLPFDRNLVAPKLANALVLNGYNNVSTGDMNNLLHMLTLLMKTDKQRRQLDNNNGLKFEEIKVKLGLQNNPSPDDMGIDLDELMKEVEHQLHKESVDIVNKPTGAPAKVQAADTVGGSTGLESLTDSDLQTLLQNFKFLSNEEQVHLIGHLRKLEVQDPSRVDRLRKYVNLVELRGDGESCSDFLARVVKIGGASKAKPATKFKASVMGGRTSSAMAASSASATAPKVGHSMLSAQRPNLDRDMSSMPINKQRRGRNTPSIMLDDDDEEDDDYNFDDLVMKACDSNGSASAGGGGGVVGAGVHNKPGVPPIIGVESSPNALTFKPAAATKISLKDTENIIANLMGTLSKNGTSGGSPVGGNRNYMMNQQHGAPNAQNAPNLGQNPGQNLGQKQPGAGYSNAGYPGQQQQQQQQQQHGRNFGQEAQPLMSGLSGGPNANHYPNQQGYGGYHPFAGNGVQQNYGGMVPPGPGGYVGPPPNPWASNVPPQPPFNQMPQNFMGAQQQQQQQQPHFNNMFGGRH

Sequences of proteins named here, by UniProt entry; tags and fusion partners are left off. A change or cut given only in a name is not applied to a line headed by its entry.
UniProt Q9Y134: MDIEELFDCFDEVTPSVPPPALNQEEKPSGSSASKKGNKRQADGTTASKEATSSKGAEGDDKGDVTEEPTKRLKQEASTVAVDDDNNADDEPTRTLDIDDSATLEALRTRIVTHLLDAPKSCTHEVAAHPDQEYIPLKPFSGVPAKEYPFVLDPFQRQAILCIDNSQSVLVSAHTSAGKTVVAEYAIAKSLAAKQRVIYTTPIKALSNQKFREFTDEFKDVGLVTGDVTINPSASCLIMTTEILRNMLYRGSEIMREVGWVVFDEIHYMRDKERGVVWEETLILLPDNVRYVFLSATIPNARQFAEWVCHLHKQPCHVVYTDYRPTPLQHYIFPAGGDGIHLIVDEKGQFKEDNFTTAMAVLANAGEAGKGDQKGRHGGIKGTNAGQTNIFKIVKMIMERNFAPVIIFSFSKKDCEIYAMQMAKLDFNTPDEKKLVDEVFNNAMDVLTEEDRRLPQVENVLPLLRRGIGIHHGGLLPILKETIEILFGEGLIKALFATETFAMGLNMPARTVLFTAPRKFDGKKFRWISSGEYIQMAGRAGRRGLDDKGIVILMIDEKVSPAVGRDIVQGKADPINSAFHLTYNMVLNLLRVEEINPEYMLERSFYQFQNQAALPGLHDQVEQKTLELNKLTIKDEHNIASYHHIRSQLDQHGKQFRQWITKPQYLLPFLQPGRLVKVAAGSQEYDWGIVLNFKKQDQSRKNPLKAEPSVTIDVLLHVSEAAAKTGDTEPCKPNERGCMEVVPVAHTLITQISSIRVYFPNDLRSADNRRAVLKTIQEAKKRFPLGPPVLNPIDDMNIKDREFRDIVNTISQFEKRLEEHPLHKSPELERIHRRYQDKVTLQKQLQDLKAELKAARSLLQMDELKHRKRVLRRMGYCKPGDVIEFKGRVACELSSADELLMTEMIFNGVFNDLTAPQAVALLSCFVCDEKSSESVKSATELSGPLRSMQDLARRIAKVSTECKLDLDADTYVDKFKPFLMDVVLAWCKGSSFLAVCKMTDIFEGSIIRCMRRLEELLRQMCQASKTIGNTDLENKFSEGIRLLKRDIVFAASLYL

[4] = biological target: Mtr4-dTAG-V5-3xFLAG (Drosophila melanogaster (endogenous in OSCs)) (UniProt Q9Y134); assay: affinity purification with mass spectrometry
[5] = biological target: dZcchc7-GFP-V5-3xFLAG (Drosophila melanogaster (endogenous in OSCs)); assay: affinity purification with mass spectrometry
[6] = biological target: T2, dZcchc8-GFP-V5-3xFLAG (Drosophila melanogaster (endogenous in OSCs)) (UniProt Q2PE14); assay: affinity purification with mass spectrometry
T2 sequence: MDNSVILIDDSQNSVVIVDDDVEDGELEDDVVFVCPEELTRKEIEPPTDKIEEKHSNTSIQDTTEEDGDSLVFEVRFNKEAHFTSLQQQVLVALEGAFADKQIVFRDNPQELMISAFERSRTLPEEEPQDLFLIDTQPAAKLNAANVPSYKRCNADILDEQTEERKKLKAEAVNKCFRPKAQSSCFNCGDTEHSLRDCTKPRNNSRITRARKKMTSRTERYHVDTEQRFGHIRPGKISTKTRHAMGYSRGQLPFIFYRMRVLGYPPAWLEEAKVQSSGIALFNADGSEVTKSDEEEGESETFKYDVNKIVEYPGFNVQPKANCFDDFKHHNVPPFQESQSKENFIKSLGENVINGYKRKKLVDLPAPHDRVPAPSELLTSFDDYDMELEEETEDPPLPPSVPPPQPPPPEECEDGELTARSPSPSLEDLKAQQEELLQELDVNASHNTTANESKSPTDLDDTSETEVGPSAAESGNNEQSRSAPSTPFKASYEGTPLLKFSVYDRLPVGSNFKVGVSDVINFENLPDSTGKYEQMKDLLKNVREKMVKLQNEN

[7] = biological target: 3xFLAG-TurboID-TEsup-1 (Drosophila melanogaster (endogenous in OSCs)) (UniProt Q9VBX4); assay: proximity labelling
[8] = biological target: T3, 3xFLAG-TurboID-TEsup-2 (Drosophila melanogaster (endogenous in OSCs)) (UniProt Q7YZA2); assay: proximity labelling
T3 sequence: T1 sequence

Measured: binding

B1: Pabp2 (protein, UniProt Q7KNF2 1-224)
chain: MADEDITLNEDQLLESLEETNGEQETEIATEVEEEGSMQIDPELEAIKARVKEMEEEAEKIKQMQSEVDKQMAGGSTTGLATVPLSLEEKQEIDTRSVYVGNVDYGASAEELEAHFHGCGTINRVTILCNKADGHPKGFAYIEFGSKEFVETALAMNETLFRGRQIKVMSKRTNRPGLSTTNRFARGSFRGRGARVSRACCHSTFRGARRAMGYRGRANYYAPY
binds: [1]

B2: Swm (protein, UniProt Q9VIV2 1-1062)
chain: MILENSDKLKDWLSVVLEPLCDADSSALARYVIALLKKDKSDKDLKRIMIEQLDVFLSEETTRFVERLFDAIASEEYLTVPAAPLITASSASTAELTVDQELALVIDGPQDDIEAVLVADSPPPPPKDNVIKPDSNQVKLEQASQDAREAEALAFISQEAGIAMHVPTDAKPAFDHKTKDSHNQQSASNYQHHHVRSASPPGRSSGVSGSGGGGPGGAGLAAGYADKENQPRDSRRRRASLRSRSRSRSRSNERAFRRSRSRDRRVNEREKTQRQFRNKSPPGSQTDNRHHGRRNFDRRRIGGNADDRPRFGNNKSRRSHSRSMSPERNARRNQNSPDRVQTAQANLIPAPVAPPAPVEHPASHPRQRCRDFDEKGYCVRGETCPWDHGVNPVVFEGINNTSLMMSMREYNPDAPEIWARSGGPPPGAGQGPVPPPTQPGQTTINPFSGNVRPTTLMSGSGPSPMGVPNPADYARNPGAPPQAAMMPFPFNPTAVTTPLQRQLIPIPVVDGAPTGGVAEVGKRRFELEDTVAIADVPTKRKVPINSRLGPRVNPNMQQHNSSLELRKVPRGLNTIAHLNNHFAKFGKIVNIQVSYEGDPEAAIVTFSTHAEANVAYRSTEAVLNNRFIKVFWHNDSSGADVGQMNQMGGGGGGGGRKNASQYHLHNVPAVPTPNADGAKISNANPLTEAGAGNIGTPATEQANTAAPASMRLKLNTTTAGGSAGGAAGAGAPGSGRPLNPAANAASIRKKQEEQQKAVHQLANGLRKRKQELLQSYMKQMKTALELVERMDQQDPQRAPTLQTIKVLQMTIDKLRKEIKADQDQLQAQMQQQQQQQQPPVKKTKEQQKKELLDMELELIAQQQEGNDTTAIQKRLEELQRNLGVGSAANNKSTHYAPASGAPGGGAGRKRPNLPEGPTRVDRRPKAIVVTGFAAEEADFVLGHFKNFGEISKHDVDREIPQLILSYATRLNAEQAVLRGKMYKDKRLQISWAPVVTPAPAPMAAPVEKSAAPGDMSVSLENPKQLIQSVSESESLLGSDTLPELRLEDEEEDEESEDRSWRR
binds: [1]

B3: Maelstrom (protein, UniProt Q9VNS0 1-459)
chain: MAPKKHSGFMMFVNEWRNRNAEGRRMTLAQAVSHCGTIWEKMNTQQRGPYNSGGKDANVAQRAKRESSNGHGQVDKAQREATESLMDMKRTIERLVLNAKMSHDLENAKFVFVAFNYFTKALTTDVYVPAEFAACEYSLKEGIRSIYSTMIDPGQIIFGQGSDALLHSSTTHDLPLPPNALGEKNMTKLYRNIVDYLSKCQGKGKTLVVFTPAENITMVKSCFRYLECDDDFRDGGEKIQVFDIQYLLFILKKEVMNVADLNDEKINKFATDAFFKKDFFEFTAGIACQYHEDNDRTKYCTQSMVTRWAYTFTDFMCGDLAITVQPGKHIPAQTKPNYLIISSYASSLDHESSFDSFYSLPGSGVKKESQPEACSLSSSRLSVASSSYKPIDHTSFAANLNEVSEFPSLGMRNSSKHHGIAASAQREWNARNLPTHSRLIRKVSDNDFSVNGADGKLKK
binds: [2] | [3] | [4] | [5] | [6] | [7] | [8]

B4: Piwi (protein, UniProt Q9VKM1 1-843)
chain: MADDQGRGRRRPLNEDDSSTSRGSGDGPRVKVFRGSSSGDPRADPRIEASRERRALEEAPRREGGPTERKPWGDQYDYLNTRPAELVSKKGTDGVPVMLQTNFFRLKTKPEWRIVHYHVEFEPSIENPRVRMGVLSNHANLLGSGYLFDGLQLFTTRKFEQEITVLSGKSKLDIEYKISIKFVGFISCAEPRFLQVLNLILRRSMKGLNLELVGRNLFDPRAKIEIREFKMELWPGYETSIRQHEKDILLGTEITHKVMRTETIYDIMRRCSHNPARHQDEVRVNVLDLIVLTDYNNRTYRINDVDFGQTPKSTFSCKGRDISFVEYYLTKYNIRIRDHNQPLLISKNRDKALKTNASELVVLIPELCRVTGLNAEMRSNFQLMRAMSSYTRMNPKQRTDRLRAFNHRLQNTPESVKVLRDWNMELDKNVTEVQGRIIGQQNIVFHNGKVPAGENADWQRHFRDQRMLTTPSDGLDRWAVIAPQRNSHELRTLLDSLYRAASGMGLRIRSPQEFIIYDDRTGTYVRAMDDCVRSDPKLILCLVPNDNAERYSSIKKRGYVDRAVPTQVVTLKTTKNRSLMSIATKIAIQLNCKLGYTPWMIELPLSGLMTIGFDIAKSTRDRKRAYGALIASMDLQQNSTYFSTVTECSAFDVLANTLWPMIAKALRQYQHEHRKLPSRIVFYRDGVSSGSLKQLFEFEVKDIIEKLKTEYARVQLSPPQLAYIVVTRSMNTRFFLNGQNPPPGTIVDDVITLPERYDFYLVSQQVRQGTVSPTSYNVLYSSMGLSPEKMQKLTYKMCHLYYNWSGTTRVPAVCQYAKKLATLVGTNLHSIPQNALEKKFYYL
binds: [2] | [3] | [4] | [5] | [6] | [7] | [8]

B5: dZcchc8 (CG4622) (protein, UniProt Q2PE14 1-553)
chain: T2 sequence
binds: [2] | [3] | [4] | [7] | [8]
